± gives the standard error. The uncertainty is large for many entries.
B1: glmS ribozyme (parent)
chain: AUAAAAGCGCCAGAACUACAGAAAUGUAGUUGACGAGGAGGAGGUUUAUCGAAUUUUCGGCGGAUGCCUCCAAA

Variants of: B1
Test: KM; higher = weaker cofactor use; RNA array
Settings: with glucosamine-6-phosphate
Method in brief: (§1)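 Using a hybridised Cy3 probe at 37 °C, barcoded ribozyme variants transcribed in situ by E. coli RNA polymerase on sequenced MiSeq chips were monitored across tiles imaged over ~14 h. The flow contained glucosamine-6-phosphate from 40 μM to 10 mM in HEPES/KCl/Mg(OAc)2 buffer. Signals were normalised to baseline and to non-cleaving reference variants before per-tile medians were fit to one- or two-exponential decays to yield kobs. Weighted Michaelis–Menten fits across concentrations gave kcat and KM.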

Variant | KM [µM]
G13A A53U C58A | 3780 ± 2600
C10U U56C | 1420 ± 710
G13U G32C | 5090 ± 3000
A12U C70U | 84.3 ± 67
A12U U47G C70G | 179 ± 100
C11U A14U C16G | 12800 ± 4300
A14C A33C | 55.9 ± 44
A15C U47A | 2080 ± 870
C11U G40A | 5980 ± 4500
C16G C34U | 17.4 ± 14
C11A U49G U57G | 82.1 ± 59
A12C G41A | 1930 ± 1100
C16G G37A | 10600 ± 8200
A14G A48G | 648 ± 220
U30A G37A | 2360 ± 1300
C10G U46A | 19.5 ± 12
A12U G66C | 1270 ± 160
A12G C67G | 1850 ± 62
G13U A15G | 5260 ± 3600
A15G C58U | 13200 ± 5300
C16A U31C | 4470 ± 2800
C11A C16G | 16900 ± 6000
G7C G37C | 63.3 ± 33

Variant | KM [µM]
G13C A14U | 2100 ± 320
A12U U45A A53U | 1100 ± 390
A12C C67G | 1210 ± 660
A14U A36G G66U | 50.8 ± 29
C16G U55C | 1270 ± 890
C16A C70U | 254 ± 200
C16U G66A | 1520 ± 640
C16U G66C | 657 ± 250
A12G A15G C70A | 2120 ± 890
A15U G43A | 162 ± 130
A14G C16U | 75.5 ± 48
A6U U49A C71G | 120 ± 99
A14U G29U | 2040 ± 400
C10U A36C | 175 ± 95
A14U G63C | 138 ± 100
A15U G41A | 577 ± 550
A15U G41U | 258 ± 200
U30A A42U | 588 ± 46
A15U U54A | 1360 ± 360
G9A G37C | 402 ± 370
A15U U46A | 2050 ± 300
A14U U46G | 2150 ± 380
A12U A52U | 4090 ± 490

Variant | KM [µM]
A14G G40A | 256 ± 160
A14G G29U | 801 ± 550
A12G U45C | 2510 ± 620
A15C G32A U55A | 5560 ± 3900
G13C G40C | 28300 ± 17000
A14G G41U U45A C70U | 90.7 ± 54
A15U A39G | 1830 ± 730
G13A G59A | 210 ± 160
A15C C50A | 58.3 ± 56
A15C C50U | 42.3 ± 32
C16U A52G | 5340 ± 3500
A15C G40A | 1860 ± 840
A15C G40C | 1230 ± 420
A15U G66U | 717 ± 180
G13A C61G | 127 ± 17
A6U G13U | 5530 ± 4000
G29A U49G | 305 ± 290
C11A A14G U65G | 1370 ± 200
C16G U57G | 1400 ± 850
C11U G37C U57A | 257 ± 190
A12C A48C | 3900 ± 2300
C11A A36U | 573 ± 550
C10U G66U | 17.6 ± 14

Variant | KM [µM]
G29C C70U | 142 ± 120
G29C U57A | 2230 ± 1700
G13A U65A | 10100 ± 6100
G29C G37A | 6200 ± 1700
A14G C71U | 3350 ± 1700
A12C U30C C71U | 3540 ± 1200
A15C U54A | 1930 ± 730
A15C U31G | 3460 ± 1800
A15C U31A | 1860 ± 480
A12C U57A | 893 ± 750
C16G C67A | 1820 ± 1200
G13A G40A | 6100 ± 1200
A12U U65C | 1820 ± 1000
C16A U54G | 1470 ± 870
C11U U46C | 1740 ± 1400
G7A U45C | 50.4 ± 36
A14U G43A | 26700 ± 16000
A12U G37U | 17200 ± 8700
C11A U47A | 2210 ± 1300
G29U C70G | 354 ± 150
C10U G35A | 118 ± 97
G13C U45A | 5140 ± 3500
G13C G41U | 10600 ± 6000

Variant | KM [µM]
A14U U30A | 2250 ± 960
A12C G29C | 2770 ± 820
A15G U47C | 1660 ± 350
C10A A52G | 315 ± 170
A12C A36U | 56.2 ± 26
C16U C71G | 141 ± 82
A15C U30C | 3040 ± 2500
C10G U47G G60C | 1460 ± 1000
C8G G37U | 3520 ± 1900
A15U G59U | 1510 ± 870
C11U U55A U56G | 1530 ± 1100
A12U A39G | 99.8 ± 75
G9A A12C | 25.4 ± 23
C16A G32C | 1220 ± 140
A14G U55G | 314 ± 180
A14G U55C | 1530 ± 800
C10G A64G | 90.7 ± 59
U30A C70U | 321 ± 270
A15G G29U | 2350 ± 1500
A15G G29C | 3540 ± 1400
G9U C58G | 44.8 ± 23
C11A G59U | 2310 ± 700
A14U A42U | 884 ± 270

Variant | KM [µM]
A6U U31G | 1140 ± 620
A14U U47C | 1430 ± 360
A15G G37U | 623 ± 300
G29C C58U | 2150 ± 1100
A15C U49G | 1520 ± 550
G26U G40U | 272 ± 64
C11U U56C | 2260 ± 1000
A14G U31A C67G | 550 ± 430
A15C C58G | 2000 ± 1000
C16U G43A | 4310 ± 3600
A12C C68U | 1370 ± 220
A14U U54C | 1830 ± 830
A14U U54G | 2950 ± 1500
A12C A42G | 958 ± 630
C16U G40U | 830 ± 600
G13C U31A | 3100 ± 280
A12G G66U | 14700 ± 7300
A6U G66A | 3170 ± 600
A6U G66U | 1280 ± 630
A12U C68G | 624 ± 230
A12U U45G | 1870 ± 530
C11A A52U C67G | 122 ± 88
G29C U55C | 3510 ± 1600

Some values from the results shown.
For KM [µM], C11A A52U C67G reads 122 ± 88
For KM [µM], A14U U47C reads 1430 ± 360
For KM [µM], C16U G40U reads 830 ± 600
For KM [µM], A12U C68G reads 624 ± 230

5 entries drawn at random from those above:
Variant | KM [µM]
C16U G43A | 4310 ± 3600
A12U C68G | 624 ± 230
A15C C58G | 2000 ± 1000
A6U G66U | 1280 ± 630
C11U U56C | 2260 ± 1000

Later entries.

Variant | KM [µM]
A12C U45A | 1690 ± 110
G13U A42C U69G | 2840 ± 2300
C16A C67G | 269 ± 250
A12G G29U C67G | 2890 ± 2200
A15C U46A | 1940 ± 1700
A15U U55G | 2160 ± 1300
A15C U55G | 969 ± 700
A12U U31A | 2890 ± 880
A12C U46C | 1680 ± 590
A14G G32C C70U | 17800 ± 9500
A14G G60A | 3020 ± 1300
C16G U47A | 1710 ± 700
A12C G26U | 281 ± 220
A14C U57A | 10600 ± 1600
C16G C71U | 956 ± 300
A15U G35A | 241 ± 160
A12G G32U | 11700 ± 580
A12G C58G C67A | 150 ± 140

A portion of the results above, for reference:
Variant | KM [µM]
A15U U55G | 2160 ± 1300
A15C U55G | 969 ± 700

Variants of: B1
Test: self-cleavage kobs at 10000 uM GlcN6P; higher = faster cleavage; RNA array
Settings: with glucosamine-6-phosphate
Method in brief: as §1

Variant | self-cleavage kobs at 10000 uM GlcN6P [s⁻¹]
C10U U56C | 1.79e-05 ± 1.7e-05
C16G U57G | 1.94e-05 ± 1.3e-05
A12U G37U | 1.29e-05 ± 7.2e-06
G13C G41U | 1.49e-05 ± 1.2e-05

Variants of: B1
Test: self-cleavage kobs at 160 uM GlcN6P; higher = faster cleavage; RNA array
Settings: with glucosamine-6-phosphate
Method in brief: as §1

Variant | self-cleavage kobs at 160 uM GlcN6P [s⁻¹]
G13U G32C | 3.19e-05 ± 1.7e-05
A6U U49A C71G | 1.89e-05 ± 1.9e-05
A15U G66U | 3.04e-05 ± 1.9e-05
G29U C70G | 1.19e-05 ± 1.1e-05
C11U U56C | 1.94e-05 ± 1.7e-05
A15C U46A | 3.64e-05 ± 2.2e-05
A12G C58G C67A | 4.54e-05 ± 2.9e-05

Variants of: B1
Test: self-cleavage kobs at 40 uM GlcN6P; higher = faster cleavage; RNA array
Settings: with glucosamine-6-phosphate
Method in brief: as §1

Variant | self-cleavage kobs at 40 uM GlcN6P [s⁻¹]
G13U A15G | 3.8e-05 ± 2.9e-05
A15U G41U | 2.17e-05 ± 1.4e-05
A15C G40C | 2.02e-05 ± 1.1e-05
G29U C70G | 2.09e-05 ± 1.4e-05
A12C C68U | 1.22e-05 ± 9.3e-06

Variants of: B1
Test: self-cleavage kobs at 2500 uM GlcN6P; higher = faster cleavage; RNA array
Settings: with glucosamine-6-phosphate
Method in brief: as §1

Variant | self-cleavage kobs at 2500 uM GlcN6P [s⁻¹]
C11A C16G | 2.09e-05 ± 1.9e-05
A15U A39G | 0.00265 ± 0.0013
G29C U57A | 2.39e-05 ± 2e-05
A14G U55C | 0.0798 ± 0.043
A14U A42U | 2.19e-05 ± 1.5e-05
C11A A52U C67G | 2.95e-05 ± 2.6e-05
A12G G29U C67G | 4.42e-05 ± 2.3e-05

Variants of: B1
Test: self-cleavage kobs at 640 uM GlcN6P; higher = faster cleavage; RNA array
Settings: with glucosamine-6-phosphate
Method in brief: as §1

Variant | self-cleavage kobs at 640 uM GlcN6P [s⁻¹]
A6U U49A C71G | 3.2e-05 ± 2.3e-05
G13A U65A | 1.58e-05 ± 1.3e-05
G29C G37A | 3.02e-05 ± 1.5e-05
G13A G40A | 1.29e-05 ± 1.1e-05
A6U U31G | 2.17e-05 ± 1.6e-05
G29C C58U | 2.26e-05 ± 1.4e-05
A15C U49G | 2.77e-05 ± 1.8e-05
C16U G43A | 3.1e-05 ± 1.8e-05
A12G G66U | 2.42e-05 ± 1.5e-05
A14G G32C C70U | 1.94e-05 ± 1.3e-05

Reference: the supplement of paper PMC7125110
